# Measured values published in the supplement of paper PMC8728848.
# Some of the results follow.
# B1: OS9-MRH (Homo sapiens), Q13438 (protein)
# chain: IPELLSPMRDAPCLLKTKDWWTYEFCYGRHIQQYHMEDSEIKGEVLYLGYYQSAFDWDDETAKASKQHRLKRYHSQTYGNGSKCDLNGRPREAEVRFLCDEGAGISGDYIDRVDEPLSCSYVLTIRTPRLCPHPLLRPPPSAAPQAI
# What was measured:
# Assay in all cases: glycan array binding signal (z-score within array); higher = stronger binding
# Conditions in all cases: glycan notation: IUPAC condensed, linker removed
# [1] = biological target: GlcNAc(b1-3)Gal(b1-4)GlcNAc(b1-3)Gal(b1-4)GlcNAc(b1-3)Gal(b1-4)GlcNAc(b1-3)Gal(b1-4)GlcNAc(b1-2)[GlcNAc(b1-3)Gal(b1-4)GlcNAc(b1-3)Gal(b1-4)GlcNAc(b1-3)Gal(b1-4)GlcNAc(b1-3)Gal(b1-4)GlcNAc(b1-6)]Man(a1-6)[GlcNAc(b1-3)Gal(b1-4)GlcNAc(b1-3)Gal(b1-4)GlcNAc(b1-3)Gal(b1-4)GlcNAc(b1-3)Gal(b1-4)GlcNAc(b1-2)Man(a1-3)]Man(b1-4)GlcNAc(b1-4)[Fuc(a1-6)]GlcNAc
# Outline: (§1)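 Columns mapping to the same glycan were averaged after glycan names were converted to IUPAC-condensed notation. The data come from 3228 arrays in the Consortium for Functional Glycomics database, limited to those with an available protein sequence. Binding is reported as a within-array Z-score averaged across arrays of one protein sequence and across linkers.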
# [2] = biological target: GlcNAc(b1-3)Gal(b1-4)GlcNAc(b1-3)Gal(b1-4)GlcNAc(b1-3)GalNAc
# Outline: as §1
# [3] = biological target: GlcNAc(b1-3)Gal(b1-4)GlcNAc(b1-3)GalNAc
# Outline: as §1
# [4] = biological target: GlcNAc(b1-3)Gal(b1-4)GlcNAc(b1-3)[GlcNAc(b1-3)Gal(b1-4)GlcNAc(b1-3)]GalNAc
# Outline: as §1
# [5] = biological target: GlcNAc(b1-3)Gal(b1-4)GlcNAc(b1-6)[Gal(b1-3)]GalNAc
# Outline: as §1
# [6] = biological target: GlcNAc(b1-3)Gal(b1-4)GlcNAc(b1-6)[GlcNAc(b1-3)Gal(b1-3)]GalNAc
# Outline: as §1
# [7] = biological target: GlcNAc(b1-3)Gal(b1-4)GlcNAc(b1-6)[GlcNAc(b1-3)]Gal(b1-4)GlcNAc
# Outline: as §1
# GlcNAc(b1-3)GalNAc = biological target: GlcNAc(b1-3)GalNAc
# Outline: as §1
# GlcNAc(b1-3)Man = biological target: GlcNAc(b1-3)Man
# Outline: as §1
# [8] = biological target: GlcNAc(b1-3)[GlcNAc(b1-4)][GlcNAc(b1-6)]GlcNAc
# Outline: as §1
# [9] = biological target: GlcNAc(b1-3)[GlcNAc(b1-6)]Gal(b1-4)GlcNAc
# Outline: as §1
# [10] = biological target: GlcNAc(b1-3)[GlcNAc(b1-6)]GalNAc
# Outline: as §1
# [11] = biological target: GlcNAc(b1-4)Gal(b1-4)GlcNAc
# Outline: as §1
# GlcNAc(b1-4)GlcNAc = biological target: GlcNAc(b1-4)GlcNAc
# Outline: as §1
# [12] = biological target: GlcNAc(b1-4)GlcNAc(b1-4)GlcNAc
# Outline: as §1
# [13] = biological target: GlcNAc(b1-4)GlcNAc(b1-4)GlcNAc(b1-4)GlcNAc(b1-4)GlcNAc
# Outline: as §1
# [14] = biological target: GlcNAc(b1-4)GlcNAc(b1-4)GlcNAc(b1-4)GlcNAc(b1-4)GlcNAc(b1-4)GlcNAc
# Outline: as §1
# [15] = biological target: GlcNAc(b1-4)[GlcNAc(b1-6)]GalNAc
# Outline: as §1
# [16] = biological target: GlcNAc(b1-6)Gal(b1-4)GlcNAc
# Outline: as §1
# GlcNAc(b1-6)GalNAc = biological target: GlcNAc(b1-6)GalNAc
# Outline: as §1
# [17] = biological target: GlcNAc6S(b1-3)Gal(b1-4)GlcNAc
# Outline: as §1
# Kdn(a2-3)Gal(b1-3)GalNAc = biological target: Kdn(a2-3)Gal(b1-3)GalNAc
# Outline: as §1
# Kdn(a2-3)Gal(b1-3)GlcNAc = biological target: Kdn(a2-3)Gal(b1-3)GlcNAc
# Outline: as §1
# Kdn(a2-3)Gal(b1-4)Glc = biological target: Kdn(a2-3)Gal(b1-4)Glc
# Outline: as §1
# Kdn(a2-3)Gal(b1-4)GlcNAc = biological target: Kdn(a2-3)Gal(b1-4)GlcNAc
# Outline: as §1
# [18] = biological target: Kdn(a2-3)Gal(b1-4)[Fuc(a1-3)]GlcNAc
# Outline: as §1
# Kdn(a2-6)Gal(b1-4)GlcNAc = biological target: Kdn(a2-6)Gal(b1-4)GlcNAc
# Outline: as §1
# [19] = biological target: Man(a1-2)Man(a1-2)Man(a1-3)Man
# Outline: as §1
# [20] = biological target: Man(a1-2)Man(a1-2)Man(a1-6)[Man(a1-3)]Man
# Outline: as §1
# Man(a1-2)Man(a1-3)Man = biological target: Man(a1-2)Man(a1-3)Man
# Outline: as §1
# [21] = biological target: Man(a1-2)Man(a1-3)[Man(a1-2)Man(a1-6)]Man
# Outline: as §1
# [22] = biological target: Man(a1-2)Man(a1-3)[Man(a1-2)Man(a1-6)]Man(a1-6)[Man(a1-2)Man(a1-2)Man(a1-3)]Man
# Outline: as §1
# [23] = biological target: Man(a1-2)Man(a1-3)[Man(a1-2)Man(a1-6)]Man(a1-6)[Man(a1-2)Man(a1-2)Man(a1-3)]Man(b1-4)GlcNAc(b1-4)GlcNAc
# Outline: as §1
# [24] = biological target: Man(a1-2)Man(a1-3)[Man(a1-6)]Man(a1-6)[Man(a1-2)Man(a1-3)]Man(b1-4)GlcNAc(b1-4)GlcNAc
# Outline: as §1
# [25] = biological target: Man(a1-2)Man(a1-6)[Man(a1-3)]Man(a1-6)[Man(a1-2)Man(a1-2)Man(a1-3)]Man
# Outline: as §1
# [26] = biological target: Man(a1-2)Man(a1-6)[Man(a1-3)]Man(a1-6)[Man(a1-2)Man(a1-2)Man(a1-3)]Man(b1-4)GlcNAc(b1-4)GlcNAc
# Outline: as §1
# Man(a1-3)[Man(a1-6)]Man = biological target: Man(a1-3)[Man(a1-6)]Man
# Outline: as §1
# [27] = biological target: Man(a1-3)[Man(a1-6)]Man(a1-6)[Man(a1-2)Man(a1-3)]Man(b1-4)GlcNAc(b1-4)GlcNAc
# Outline: as §1
# [28] = biological target: Man(a1-3)[Man(a1-6)]Man(a1-6)[Man(a1-3)]Man
# Outline: as §1
# [29] = biological target: Man(a1-3)[Man(a1-6)]Man(a1-6)[Man(a1-3)]Man(b1-4)GlcNAc(b1-4)GlcNAc
# Outline: as §1
# [30] = biological target: Man(a1-3)[Man(a1-6)]Man(b1-4)GlcNAc(b1-4)GlcNAc
# Outline: as §1
# [31] = biological target: Man(a1-3)[Man(a1-6)]Man(b1-4)GlcNAc(b1-4)[Fuc(a1-6)]GlcNAc
# Outline: as §1
# Man(a1-6)Man = biological target: Man(a1-6)Man
# Outline: as §1
# Man(b1-4)GlcNAc = biological target: Man(b1-4)GlcNAc
# Outline: as §1
# MurNAc(b1-4)GlcNAc = biological target: MurNAc(b1-4)GlcNAc
# Outline: as §1
binder,measurement,setting,value
B1,glycan array binding signal (z-score),[1],-0.047
same,glycan array binding signal (z-score),[2],0.011
same,glycan array binding signal (z-score),[3],0.923
same,glycan array binding signal (z-score),[4],1.21
same,glycan array binding signal (z-score),[5],0.329
same,glycan array binding signal (z-score),[6],-0.516
same,glycan array binding signal (z-score),[7],1.31
same,glycan array binding signal (z-score),GlcNAc(b1-3)GalNAc,1.37
same,glycan array binding signal (z-score),GlcNAc(b1-3)Man,-0.667
same,glycan array binding signal (z-score),[8],0.381
same,glycan array binding signal (z-score),[9],-0.556
same,glycan array binding signal (z-score),[10],-0.056
same,glycan array binding signal (z-score),[11],-0.404
same,glycan array binding signal (z-score),GlcNAc(b1-4)GlcNAc,-0.722
same,glycan array binding signal (z-score),[12],0.252
same,glycan array binding signal (z-score),[13],0.569
same,glycan array binding signal (z-score),[14],-0.3
same,glycan array binding signal (z-score),[15],0.693
same,glycan array binding signal (z-score),[16],-0.726
same,glycan array binding signal (z-score),GlcNAc(b1-6)GalNAc,-0.209
same,glycan array binding signal (z-score),[17],-0.286
same,glycan array binding signal (z-score),Kdn(a2-3)Gal(b1-3)GalNAc,-0.709
same,glycan array binding signal (z-score),Kdn(a2-3)Gal(b1-3)GlcNAc,-0.687
same,glycan array binding signal (z-score),Kdn(a2-3)Gal(b1-4)Glc,0.824
same,glycan array binding signal (z-score),Kdn(a2-3)Gal(b1-4)GlcNAc,1.29
same,glycan array binding signal (z-score),[18],1.04
same,glycan array binding signal (z-score),Kdn(a2-6)Gal(b1-4)GlcNAc,-0.411
same,glycan array binding signal (z-score),[19],0.886
same,glycan array binding signal (z-score),[20],-0.565
same,glycan array binding signal (z-score),Man(a1-2)Man(a1-3)Man,-0.606
same,glycan array binding signal (z-score),[21],-0.512
same,glycan array binding signal (z-score),[22],-0.853
same,glycan array binding signal (z-score),[23],-0.637
same,glycan array binding signal (z-score),[24],-1.58
same,glycan array binding signal (z-score),[25],-0.992
same,glycan array binding signal (z-score),[26],0.421
same,glycan array binding signal (z-score),Man(a1-3)[Man(a1-6)]Man,1.42
same,glycan array binding signal (z-score),[27],-0.387
same,glycan array binding signal (z-score),[28],0.835
same,glycan array binding signal (z-score),[29],0.612
same,glycan array binding signal (z-score),[30],-0.235
same,glycan array binding signal (z-score),[31],0.549
same,glycan array binding signal (z-score),Man(a1-6)Man,-0.075
same,glycan array binding signal (z-score),Man(b1-4)GlcNAc,-0.365
same,glycan array binding signal (z-score),MurNAc(b1-4)GlcNAc,0.08

# Part of the list above in a different format:
binder | measurement | setting | value
B1 | glycan array binding signal (z-score) | [6] | -0.516
same | glycan array binding signal (z-score) | GlcNAc(b1-4)GlcNAc | -0.722
same | glycan array binding signal (z-score) | [14] | -0.3
same | glycan array binding signal (z-score) | [15] | 0.693
same | glycan array binding signal (z-score) | GlcNAc(b1-6)GalNAc | -0.209
same | glycan array binding signal (z-score) | Kdn(a2-3)Gal(b1-4)GlcNAc | 1.29
same | glycan array binding signal (z-score) | [23] | -0.637
same | glycan array binding signal (z-score) | [24] | -1.58
same | glycan array binding signal (z-score) | Man(b1-4)GlcNAc | -0.365
same | glycan array binding signal (z-score) | MurNAc(b1-4)GlcNAc | 0.08
